Data: PMC10454142

Target: Arabidopsis RAD16 (AtRAD16, At1g05120) (Arabidopsis thaliana)
Test: two-hybrid; GAL-4 Matchmaker Gold yeast two-hybrid; haploid Y2HGold and Y187 strains mated; diploids spotted on quadruple drop-out medium (-ade -his -leu -trp), double drop-out (-trp -leu) as control; ADE2 and HIS3 reporters

B2: Arabidopsis RAD23b (AtRAD23b, At1g79650) (protein, UniProt Q84L33 1-371)
chain: MKLTVKTLKGSHFEIRVLPSDTIMAVKKNIEDSQGKDNYPCGQQLLIHNGKVLKDETSLVENKVTEEGFLVVMLSKSKSGGSAGQASVQTSSVSQPVSATTSSTKPAAPSTTQSSPVPASPIPAQEQPAAQTDTYGQAASTLVSGSSLEQMVQQIMEMGGGSWDKETVTRALRAAYNNPERAVDYLYSGIPQTAEVAVPVPEAQIAGSGAAPVAPASGGPNSSPLDLFPQETVAAAGSGDLGTLEFLRNNDQFQQLRTMVHSNPQILQPMLQELGKQNPQLLRLIQENQAEFLQLVNEPYEGSDGEGDMFDQPEQEMPHAINVTPAEQEAIQRLEAMGFDRALVIEAFLACDRNEELAANYLLENSGDFED
binding: no binding

B4: Arabidopsis DDB2 (AtDDB2, At5g58760) (protein, UniProt Q6NQ88 1-557)
chain: MSSTRSRRKRDPEIVIARDTDSELSSSEEEEEEEDNYPFSESEEEDEAVKNGGKIELEKNKAKGKAPITVKLIKKVCKVCKQPGHEAGFKGATYIDCPMKPCFLCKMPGHTTMSCPHRVVTDHGILPTSHRNTKNPIDFVFKRQLQPRIPPIKPKYVIPDQVHCAVIRYHSRRVTCLEFHPTKNNILLSGDKKGQIGVWDFGKVYEKNVYGNIHSVQVNNMRFSPTNDDMVYSASSDGTIGYTDLETGTSSTLLNLNPDGWQGANSWKMLYGMDINSEKGVVLAADNFGFLHMIDHRTNNSTGEPILIHKQGSKVCGLDCNPVQPELLLSCGNDHFARIWDMRKLQPKASLHDLAHKRVVNSAYFSPSSGTKILTTCQDNRIRIWDSIFGNLDLPSREIVHSNDFNRHLTPFKAEWDPKDTSESLIVIGRYISENYNGTALHPIDFIDASNGQLVAEVMDPNITTITPVNKLHPRDDVLASGSSRSLFIWRPQDNTEMVEEKKDKKIIICYGDSKKKGKKQKRGSDDEDDEDDIFSSKGKNIKVNKYQAKTTKKTKT
binding: no binding

Other lines, results leading:

binding: no binding
B1: Arabidopsis RAD4 (AtRAD4) (protein, UniProt Q8W489 1-865)
chain: MKSRSESKNCRLAQASRVAVNKVLDKSSARGSRGKKKQDDNCDSAKRDKGVNGKGKQALDARLIDNVLEDRGCGNVDDDEMNDSDWEDCPIPSLDSTVDDNNVDDTRELTIEFDDDVPDAKKQKNAYRATAEDKVRAELVHKVHLLCLLARGRIVDSACNDPLIQAALLSLLPSYLTKVSNLEKVTVKDIAPLLRWVRENFSVSCSPSSEKSFRTSLAFALESRKGTAEELAALAVALLRALKLTTRFVSILDVASLKPGADRNESSGQNRAKMKHGIFRTSTLMVPKQQAISSYPKKSSSHVKNKSPFEKPQLGNPLGSDQVQDNAVNSSCEAGMSIKSDGTRRKGDVEFERQIAMALSATADNQQSSQVNNTKKVREITKISNSSSVSDQVISTAFGSKKVDSPLCWLEVYCNGENMDGKWVHVDAVNGMIDAEQNIEAAAAACKTVLRYVVAFAAGGAKDVTRRYCTKWHTISSKRVSSVWWDMVLAPLVHLESGATHDEDIALRNFNGLNPVSSRASSSSSSFGIRSALEDMELATRALTESLPTNQQAYKSHEIYAIEKWLHKNQILHPKGPVLGFCSGHPVYPRTCVQTLKTKERWLRDGLQLKANEVPSKILKRNSKFKKVKDFEDGDNNIKGGSSCMELYGKWQMEPLCLPPAVNGIVPKNERGQVDVWSEKCLPPGTVHLRFPRIFAVAKRFGIDYAPAMVGFEYRSGGATPIFEGIVVCTEFKDTILEAYAEEQEKKEEEERRRNEAQAASRWYQLLSSILTRERLKNRYANNSNDVEAKSLEVNSETVVKAKNVKAPEKQRVAKRGEKSRVRKSRNEDESHEHVFLDEEETFDEETSVKTKRCKCGFSVEVEQM

binding: no binding
B3: Arabidopsis RAD7b (AtRAD7b, At4g15475) (protein, UniProt Q9C5D2 1-610)
chain: MRGHDRINNCLPEELILEIFRRLESKPNRDACSLVCKRWLSLERFSRTTLRIGASFSPDDFISLLSRRFLYITSIHVDERISVSLPSLSPSPKRKRGRDSSSPSSSKRKKLTDKTHSGAENVESSSLTDTGLTALANGFPRIENLSLIWCPNVSSVGLCSLAQKCTSLKSLDLQGCYVGDQGLAAVGKFCKQLEELNLRFCEGLTDVGVIDLVVGCSKSLKSIGVAASAKITDLSLEAVGSHCKLLEVLYLDSEYIHDKGLIAVAQGCHRLKNLKLQCVSVTDVAFAAVGELCTSLERLALYSFQHFTDKGMRAIGKGSKKLKDLTLSDCYFVSCKGLEAIAHGCKELERVEINGCHNIGTRGIEAIGKSCPRLKELALLYCQRIGNSALQEIGKGCKSLEILHLVDCSGIGDIAMCSIAKGCRNLKKLHIRRCYEIGNKGIISIGKHCKSLTELSLRFCDKVGNKALIAIGKGCSLQQLNVSGCNQISDAGITAIARGCPQLTHLDISVLQNIGDMPLAELGEGCPMLKDLVLSHCHHITDNGLNHLVQKCKLLETCHMVYCPGITSAGVATVVSSCPHIKKVLIEKWKVTERTTRRAGSVISYLCMDL

These are yes or no findings as the source states them, for the method shown. Each block holds one binder with its values, some of them ahead of it.
